Source: patent US8603466 (KING S COLLEGE LONDON, dated 2013)
Numbering of substitutions follows the chain as printed. No constants are given. Whether binding was seen depends on the method and setting. Some results given as binding are weak or reduced against the parent protein; the word gives no strength. Blank lines part the entries; values can stand above or below the binder they belong to.

Sequences of proteins named here, by UniProt entry; tags and fusion partners are left off. Residues count along the entry.
UniProt P16473, residues 21-764: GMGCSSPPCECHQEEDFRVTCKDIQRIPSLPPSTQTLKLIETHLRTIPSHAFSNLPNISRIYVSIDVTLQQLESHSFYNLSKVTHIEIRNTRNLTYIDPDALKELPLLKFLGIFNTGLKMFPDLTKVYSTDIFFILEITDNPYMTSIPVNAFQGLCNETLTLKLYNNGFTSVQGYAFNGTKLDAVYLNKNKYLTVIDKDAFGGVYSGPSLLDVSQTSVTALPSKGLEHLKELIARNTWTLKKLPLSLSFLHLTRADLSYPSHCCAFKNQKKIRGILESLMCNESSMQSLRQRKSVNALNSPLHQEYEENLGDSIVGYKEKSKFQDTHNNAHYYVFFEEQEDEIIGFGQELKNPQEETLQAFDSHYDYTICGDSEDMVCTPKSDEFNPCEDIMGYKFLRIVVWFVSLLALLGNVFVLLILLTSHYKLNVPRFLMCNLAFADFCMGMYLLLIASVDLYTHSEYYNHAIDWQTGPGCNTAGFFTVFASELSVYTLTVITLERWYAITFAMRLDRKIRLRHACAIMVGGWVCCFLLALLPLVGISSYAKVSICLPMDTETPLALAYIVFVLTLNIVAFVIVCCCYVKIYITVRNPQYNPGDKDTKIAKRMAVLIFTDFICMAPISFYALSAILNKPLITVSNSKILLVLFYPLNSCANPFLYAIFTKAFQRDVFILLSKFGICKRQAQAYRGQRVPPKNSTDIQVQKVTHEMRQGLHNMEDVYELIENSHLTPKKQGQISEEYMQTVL

Experiments:
[1] = target: human TSHR immobilised on coated tubes (TRAK II [DYNOtest human] kit) (human) (UniProt P16473); assay: TBII assay of papain Fab fragments
[2] = target: human TSHR immobilised on coated tubes (TRAK II [DYNOtest human] kit) (human) (UniProt P16473); assay: TBII assay, displacement of 125I-TSH from human TSHR coated tubes
[3] = target: human TSHR immobilised on coated tubes (TRAK II [DYNOtest human] kit) (human) (UniProt P16473); assay: competition of 125I-IgG with patients' sera on immobilized human TSHR
[4] = target: human TSHR immobilised on coated tubes (TRAK II [DYNOtest human] kit) (human) (UniProt P16473); assay: TSH binding inhibition (TRAK) assay and cAMP accumulation with rFab purified from E. coli

- binding [1]: binds
- binding [2]: binds
B1: KSAb2 Fab fragments (papain digest of IgG) (Fab, V domains shown)
VH: EVQLQQSGPELVKPGASMKISCKASGYSFTAYTMNWVKQTHGKNLEWIGLINPYNGGTNYNQKFEDKATLTVDKSSNTAYMDLLSLTSEDSAVYYCARRDWDYFDYWGQGTTLTVSS
VL: DVVMTQSQKFLSTSAGDRVSISCKASQNVGTALAWYQQKPGQSPKLLIYSASNRNTGVPDRFTGRGFGTDFTLTISNMQSEDLADYFCQQYSSYPYTFGGGTRLEI

- binding [3]: binds
B2: KSAb1 IgG (antibody, V domains shown)
VH: B1 VH with T30S, T40S, K63E, D66G, D73N, Y80F, D82E, E89D
VL: DIVMTQSQKFMSTSVGDRVSIICKASQNVGTFVAWYQQKPGQSPKLLVYSASNRYTGVPDRFTGSGSGTDFTLTINNMQSEDLADYFCRQYSSYPYTFGGGTKLEI
notes: also called mAb9; IgG 9

- binding [4]: binds
B3: KSAb2 rFab fragment expressed in E. coli (Fab, V domains shown)
VH: B1 VH
VL: DVVMTQSQKFLSTSAGDRVSISCKASQNVGTALAWYQQKPGQSPKLLIYSASNRNTGVPDRFTGRGFGTDFTLTISNMQSEDLADYFCQQYSSYPYTFGGGTRLEIKR

- binding [1]: binds
- binding [2]: binds
B4: KSAb1 Fab fragments (papain digest of IgG) (Fab, V domains shown)
VH: B1 VH with T30S, T40S, K63E, D66G, D73N, Y80F, D82E, E89D
VL: B2 VL

- binding [3]: binds
B5: KSAb2 IgG (antibody, V domains shown)
VH: B1 VH
VL: B1 VL
notes: also called mAb17; IgG17

- binding [4]: binds
B6: KSAb1 rFab fragment expressed in E. coli (Fab, V domains shown)
VH: B1 VH with T30S, T40S, K63E, D66G, D73N, Y80F, D82E, E89D
VL: DIVMTQSQKFMSTSVGDRVSIICKASQNVGTFVAWYQQKPGQSPKLLVYSASNRYTGVPDRFTGSGSGTDFTLTINNMQSEDLADYFCRQYSSYPYTFGGGTKLEIKR
